# Measured values taken from PubChem BioAssay AID1347076 (National Center for Advancing Translational Sciences (NCATS), 2019).
# Out of some 400,000 compounds screened, about 13,000 (3.2%) were called active. The inconclusive results got no clear call from the source; some entries with a clear call stand among them for comparison. Calls follow the shape of the dose curve; as a rule, active = well fitted cell-killing curve with a large enough effect; inconclusive = small, poorly fitted or top-dose-only effect, or effect the other way; inactive = flat fitted curve, though single readings scatter. Where the call is inconclusive, the potency comes from a doubtful curve fit.
# Experiment: qHTS assay for MDR1-selective chemotherapeutics: Primary screen using the drug-selected MDR subline cells KB-V1; also: nearly all actives have a fitted effect of over 60% in size
# Conditions: KB-V1 MDR cells viability, CellTiter-Glo, 72 h; activity change, negative = cytotoxicity: at 46.1 µM (top of the series)
# Procedure, shortened: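 KB-V1 MDR subline cells in DMEM (phenol-red free, 10% FBS) exposed to compounds in qHTS concentration series for 72 h at 37 degrees C. Viability read by CellTiter-Glo luminescence; concentration-effect curves fitted after normalization and correction.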
# % is scaled to controls: 0 for no effect and ±100 for the full control effect; potency is read from the fitted curve at half-maximal effect.
Compound,Potency,"activity change, negative = cytotoxicity"
CCOc1ccc(N(C(=O)/C=C/C(=O)Nc2cc(C)on2)C(C(=O)NC2CCCC2)c2ccccc2C)cc1 (configuration not stated),"inconclusive: 20.6 µM [cytotoxic, single point]",–
COc1ccc(C(C(=O)NC2CCCC2)N(C(=O)c2csnn2)C2CC2)cc1 (configuration not stated),"inconclusive: 29.1 µM [cytotoxic, partial curve, poor fit]",–
CCOC(=O)C(C)Sc1nc(-c2ccccc2)ccc1C#N (configuration not stated),"inconclusive: 20.6 µM [cytotoxic, single point]",–
Cc1ccc(C(=O)C(C)OC(=O)c2nc(Cl)ccc2Cl)cc1 (configuration not stated),"inconclusive: 0.517 µM [cytotoxic, full curve, poor fit]",–
Cc1cc(Nc2ccc(Br)c(C)c2)n2nc(-c3ccco3)nc2n1,"inconclusive: 20.6 µM [cytotoxic, partial curve, poor fit]",–
COc1ccc(-c2ccc3c(c2)S(=O)(=O)c2cccc(C(=O)N4CCN(c5ccccn5)CC4)c2C3=O)cc1OC,"inconclusive: 0.231 µM [cytotoxic, full curve]",–
O=C(CNC(=O)c1cccc(F)c1)N/N=C/c1ccc([N+](=O)[O-])s1,–,inactive: -11.7%
CC1CCCCC1NC(=O)c1ccc(NC2=NC3CS(=O)(=O)CC3S2)cc1 (configuration not stated),"inconclusive: 11.6 µM [rising, partial curve]",–
COc1ccccc1N1CCN(Cc2nc(N)nc(Nc3ccc(C)c(Cl)c3)n2)CC1,"inconclusive: 20.6 µM [cytotoxic, partial curve, poor fit]",–
O=C(CC1NCCc2ccccc21)Nc1ccc(Oc2ccccc2)cc1 (configuration not stated),"inconclusive: 29.1 µM [cytotoxic, single point]",–
COc1ccc(NC(=O)c2cc([N+](=O)[O-])ccc2NC(=O)CNC2CCCCC2C)c(OC)c1 (configuration not stated),"inconclusive: 1.64 µM [cytotoxic, full curve]",–
CCOc1ccc2nc(/N=C/c3c(C)[nH]n(-c4ccc(C)cc4)c3=O)sc2c1,active: 10.3 µM,–
COc1cccc(S(=O)(=O)N(C)C[C@H]2Oc3cc(Br)ccc3S(=O)(=O)N([C@@H](C)CO)C[C@H]2C)c1,active: 9.2 µM,–
CCOC(=O)C1(CCOC)CCN(Cc2cnc(-c3cccc(C)c3)nc2)CC1,"inconclusive: 23.1 µM [cytotoxic, single point]",–
CN(CC(=O)Nc1cc([N+](=O)[O-])ccc1Cl)Cc1ccc(Br)cc1,"inconclusive: 18.4 µM [cytotoxic, single point]",–
O=C(CN1CCN(C(c2ccccc2)c2ccccc2)CC1)NC(=O)NCc1ccco1,active: 2.31 µM,–
O=C(CCCCCN1C(=O)[C@@H]2Cc3ccccc3CN2C1=O)Nc1ccccc1F,"inconclusive: 2.31 µM [cytotoxic, full curve, poor fit]",–

# 2 entries picked at random from those above:
Compound,Potency,"activity change, negative = cytotoxicity"
CCOC(=O)C(C)Sc1nc(-c2ccccc2)ccc1C#N (configuration not stated),"inconclusive: 20.6 µM [cytotoxic, single point]",–
COc1ccccc1N1CCN(Cc2nc(N)nc(Nc3ccc(C)c(Cl)c3)n2)CC1,"inconclusive: 20.6 µM [cytotoxic, partial curve, poor fit]",–
